The results in this text go back to US20200353088A1 (Auckland UniServices Limited, priority 2017, published 2020).

Some peptides are written in HELM: one residue between dots, names in brackets for other building blocks, links after the first $.

The series in a line: general procedure: Fmoc solid-phase peptide synthesis.
The mark [1] stands for this setting: whole synthesis, LCMS (crude), RP-HPLC or LCMS (purified), scale of the general procedure 0.05 mmol or 0.1 mmol.

In turn, “PEPTIDE1{C.V.T.H.R.L.A.G.L.L.S.R.S.G.G.V.V.K.N.N.F.V.P.T.N.V.G.S.K.A.F.[am]}$$$$V2.0” had a step yield (purification step) of 34%. Also, under setting [1], the “crude LC-MS purity” value stood at 31% and the “final HPLC purity” value was 97%. The substance further returned a crude yield (whole synthesis, based on 31% purity, scale of the general procedure 0.05 mmol or 0.1 mmol) of 10%. Where the note is “whole synthesis, scale 0.05 mmol”, this substance had a crude mass of 49.53 mg.
